The values below come from the supplement of paper PMC10849652.

By UniProt entry, the sequences of proteins in these tests, tags left out. Where a name states a change or a piece, a line headed by the entry shows the natural chain unless it says otherwise.
UniProt P60891: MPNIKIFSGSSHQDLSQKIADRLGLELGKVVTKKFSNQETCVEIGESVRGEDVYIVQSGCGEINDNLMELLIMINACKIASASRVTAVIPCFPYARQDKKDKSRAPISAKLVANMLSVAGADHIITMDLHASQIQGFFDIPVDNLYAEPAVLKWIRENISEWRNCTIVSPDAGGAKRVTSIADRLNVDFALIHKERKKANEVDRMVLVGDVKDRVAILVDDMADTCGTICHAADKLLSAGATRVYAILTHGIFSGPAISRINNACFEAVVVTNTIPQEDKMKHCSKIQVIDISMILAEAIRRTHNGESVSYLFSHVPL
UniProt Q12972: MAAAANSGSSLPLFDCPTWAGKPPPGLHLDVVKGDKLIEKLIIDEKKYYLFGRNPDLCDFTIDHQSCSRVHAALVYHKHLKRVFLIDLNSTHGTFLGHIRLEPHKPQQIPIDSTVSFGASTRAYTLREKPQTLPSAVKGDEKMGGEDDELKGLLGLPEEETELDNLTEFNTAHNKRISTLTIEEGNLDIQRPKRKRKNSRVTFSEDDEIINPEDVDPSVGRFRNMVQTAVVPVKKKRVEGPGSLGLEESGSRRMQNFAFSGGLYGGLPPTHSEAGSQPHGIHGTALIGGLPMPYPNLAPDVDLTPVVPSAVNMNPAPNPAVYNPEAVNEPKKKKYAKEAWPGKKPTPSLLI
UniProt Q9H875: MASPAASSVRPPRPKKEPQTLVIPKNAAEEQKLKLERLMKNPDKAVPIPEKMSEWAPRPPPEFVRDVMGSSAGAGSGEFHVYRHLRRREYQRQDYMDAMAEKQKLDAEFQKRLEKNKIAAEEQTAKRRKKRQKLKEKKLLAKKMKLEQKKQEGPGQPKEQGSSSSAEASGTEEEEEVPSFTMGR
UniProt P62714, whole entry, looked up: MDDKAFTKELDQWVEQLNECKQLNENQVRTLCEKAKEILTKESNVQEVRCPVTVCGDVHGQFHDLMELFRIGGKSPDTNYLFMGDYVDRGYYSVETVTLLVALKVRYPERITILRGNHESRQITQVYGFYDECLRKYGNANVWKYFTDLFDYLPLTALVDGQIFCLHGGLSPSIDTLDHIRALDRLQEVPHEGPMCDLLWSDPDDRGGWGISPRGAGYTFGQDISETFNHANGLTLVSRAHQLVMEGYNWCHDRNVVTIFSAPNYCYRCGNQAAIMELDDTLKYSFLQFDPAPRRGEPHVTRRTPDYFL
UniProt Q96M27: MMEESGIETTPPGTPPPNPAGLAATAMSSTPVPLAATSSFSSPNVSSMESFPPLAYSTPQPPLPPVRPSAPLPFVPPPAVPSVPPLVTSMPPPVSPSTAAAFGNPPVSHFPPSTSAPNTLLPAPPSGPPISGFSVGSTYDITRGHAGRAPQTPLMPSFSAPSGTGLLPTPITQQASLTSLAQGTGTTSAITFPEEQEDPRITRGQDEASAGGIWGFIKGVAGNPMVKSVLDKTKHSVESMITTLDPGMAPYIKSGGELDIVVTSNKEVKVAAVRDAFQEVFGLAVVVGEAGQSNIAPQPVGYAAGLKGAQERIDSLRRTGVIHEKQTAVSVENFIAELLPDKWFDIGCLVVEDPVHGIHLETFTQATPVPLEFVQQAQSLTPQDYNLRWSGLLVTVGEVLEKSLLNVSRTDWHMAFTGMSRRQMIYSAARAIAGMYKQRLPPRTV
UniProt Q14738, whole entry, looked up: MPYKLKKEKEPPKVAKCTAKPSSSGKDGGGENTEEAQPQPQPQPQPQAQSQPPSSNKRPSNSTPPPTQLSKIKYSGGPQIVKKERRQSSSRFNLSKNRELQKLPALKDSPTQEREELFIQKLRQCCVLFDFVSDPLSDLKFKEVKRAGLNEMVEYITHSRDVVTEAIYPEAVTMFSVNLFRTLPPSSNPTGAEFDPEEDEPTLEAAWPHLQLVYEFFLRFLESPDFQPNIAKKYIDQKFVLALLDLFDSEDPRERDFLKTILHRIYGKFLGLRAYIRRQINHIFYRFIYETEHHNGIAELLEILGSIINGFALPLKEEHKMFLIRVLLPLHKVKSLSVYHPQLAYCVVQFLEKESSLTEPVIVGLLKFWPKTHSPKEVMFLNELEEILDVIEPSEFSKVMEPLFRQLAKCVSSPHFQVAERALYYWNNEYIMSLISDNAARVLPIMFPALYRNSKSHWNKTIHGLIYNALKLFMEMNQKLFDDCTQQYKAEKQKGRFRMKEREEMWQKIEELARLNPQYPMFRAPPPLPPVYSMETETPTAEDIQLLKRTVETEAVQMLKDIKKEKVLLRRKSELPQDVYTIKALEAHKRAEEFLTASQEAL
UniProt P48454, whole entry, looked up: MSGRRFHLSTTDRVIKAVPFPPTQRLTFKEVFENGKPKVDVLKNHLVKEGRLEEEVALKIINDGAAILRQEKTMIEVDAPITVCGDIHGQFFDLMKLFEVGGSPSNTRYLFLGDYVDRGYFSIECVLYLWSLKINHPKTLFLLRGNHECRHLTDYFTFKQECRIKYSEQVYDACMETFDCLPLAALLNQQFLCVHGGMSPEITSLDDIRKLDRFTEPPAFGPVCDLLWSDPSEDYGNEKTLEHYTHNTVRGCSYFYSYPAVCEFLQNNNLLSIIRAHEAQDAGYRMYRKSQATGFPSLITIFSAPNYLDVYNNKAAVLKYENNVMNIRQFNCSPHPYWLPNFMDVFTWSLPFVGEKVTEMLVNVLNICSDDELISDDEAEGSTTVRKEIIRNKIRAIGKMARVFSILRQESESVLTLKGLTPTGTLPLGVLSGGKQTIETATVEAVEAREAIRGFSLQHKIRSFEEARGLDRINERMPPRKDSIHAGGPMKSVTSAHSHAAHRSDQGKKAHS
UniProt P30041: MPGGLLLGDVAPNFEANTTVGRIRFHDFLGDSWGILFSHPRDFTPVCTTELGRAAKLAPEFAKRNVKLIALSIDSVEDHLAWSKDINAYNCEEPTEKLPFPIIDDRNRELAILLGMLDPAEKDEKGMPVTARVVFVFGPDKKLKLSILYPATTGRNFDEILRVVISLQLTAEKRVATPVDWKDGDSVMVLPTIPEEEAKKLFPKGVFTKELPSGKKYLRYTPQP
UniProt P41743, whole entry, looked up: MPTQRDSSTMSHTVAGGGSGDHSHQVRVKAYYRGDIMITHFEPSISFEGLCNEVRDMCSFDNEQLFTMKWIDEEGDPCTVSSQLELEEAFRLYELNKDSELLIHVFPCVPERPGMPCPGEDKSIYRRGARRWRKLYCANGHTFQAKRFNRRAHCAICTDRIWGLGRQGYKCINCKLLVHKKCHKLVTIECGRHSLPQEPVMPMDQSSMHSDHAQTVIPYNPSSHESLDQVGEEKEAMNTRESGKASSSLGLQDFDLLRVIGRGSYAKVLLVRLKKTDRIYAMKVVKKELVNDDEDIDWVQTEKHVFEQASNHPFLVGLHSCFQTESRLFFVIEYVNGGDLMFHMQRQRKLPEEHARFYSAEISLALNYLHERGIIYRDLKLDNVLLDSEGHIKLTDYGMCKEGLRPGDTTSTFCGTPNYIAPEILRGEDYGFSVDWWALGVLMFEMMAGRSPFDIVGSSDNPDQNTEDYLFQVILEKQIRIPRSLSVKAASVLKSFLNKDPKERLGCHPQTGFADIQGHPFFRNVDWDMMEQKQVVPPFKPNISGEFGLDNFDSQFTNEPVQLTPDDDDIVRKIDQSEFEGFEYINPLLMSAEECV
UniProt P13727: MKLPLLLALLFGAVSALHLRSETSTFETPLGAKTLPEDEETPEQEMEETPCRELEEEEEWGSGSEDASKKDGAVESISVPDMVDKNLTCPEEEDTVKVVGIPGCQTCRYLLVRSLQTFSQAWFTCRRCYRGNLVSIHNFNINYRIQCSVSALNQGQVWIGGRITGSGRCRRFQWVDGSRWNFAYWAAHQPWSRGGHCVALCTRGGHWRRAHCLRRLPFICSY
UniProt Q99633: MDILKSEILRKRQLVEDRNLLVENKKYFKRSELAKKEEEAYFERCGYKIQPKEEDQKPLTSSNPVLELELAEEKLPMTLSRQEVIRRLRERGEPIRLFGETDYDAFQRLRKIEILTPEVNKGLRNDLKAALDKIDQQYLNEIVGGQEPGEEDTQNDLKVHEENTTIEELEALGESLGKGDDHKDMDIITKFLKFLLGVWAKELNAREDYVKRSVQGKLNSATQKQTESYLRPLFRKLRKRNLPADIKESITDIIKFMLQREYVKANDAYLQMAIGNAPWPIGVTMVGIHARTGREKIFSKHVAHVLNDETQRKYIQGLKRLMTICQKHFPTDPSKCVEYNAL
UniProt P62140, whole entry, looked up: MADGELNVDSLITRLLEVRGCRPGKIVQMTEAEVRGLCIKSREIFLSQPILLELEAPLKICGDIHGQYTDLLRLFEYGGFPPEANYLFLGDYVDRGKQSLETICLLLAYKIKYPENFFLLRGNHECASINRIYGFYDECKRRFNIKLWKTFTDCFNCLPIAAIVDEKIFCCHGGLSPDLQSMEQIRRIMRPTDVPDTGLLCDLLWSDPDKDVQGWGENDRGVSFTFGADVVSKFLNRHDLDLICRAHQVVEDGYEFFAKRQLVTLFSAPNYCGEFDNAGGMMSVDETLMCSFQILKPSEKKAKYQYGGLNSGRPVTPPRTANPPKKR
UniProt Q8TF05: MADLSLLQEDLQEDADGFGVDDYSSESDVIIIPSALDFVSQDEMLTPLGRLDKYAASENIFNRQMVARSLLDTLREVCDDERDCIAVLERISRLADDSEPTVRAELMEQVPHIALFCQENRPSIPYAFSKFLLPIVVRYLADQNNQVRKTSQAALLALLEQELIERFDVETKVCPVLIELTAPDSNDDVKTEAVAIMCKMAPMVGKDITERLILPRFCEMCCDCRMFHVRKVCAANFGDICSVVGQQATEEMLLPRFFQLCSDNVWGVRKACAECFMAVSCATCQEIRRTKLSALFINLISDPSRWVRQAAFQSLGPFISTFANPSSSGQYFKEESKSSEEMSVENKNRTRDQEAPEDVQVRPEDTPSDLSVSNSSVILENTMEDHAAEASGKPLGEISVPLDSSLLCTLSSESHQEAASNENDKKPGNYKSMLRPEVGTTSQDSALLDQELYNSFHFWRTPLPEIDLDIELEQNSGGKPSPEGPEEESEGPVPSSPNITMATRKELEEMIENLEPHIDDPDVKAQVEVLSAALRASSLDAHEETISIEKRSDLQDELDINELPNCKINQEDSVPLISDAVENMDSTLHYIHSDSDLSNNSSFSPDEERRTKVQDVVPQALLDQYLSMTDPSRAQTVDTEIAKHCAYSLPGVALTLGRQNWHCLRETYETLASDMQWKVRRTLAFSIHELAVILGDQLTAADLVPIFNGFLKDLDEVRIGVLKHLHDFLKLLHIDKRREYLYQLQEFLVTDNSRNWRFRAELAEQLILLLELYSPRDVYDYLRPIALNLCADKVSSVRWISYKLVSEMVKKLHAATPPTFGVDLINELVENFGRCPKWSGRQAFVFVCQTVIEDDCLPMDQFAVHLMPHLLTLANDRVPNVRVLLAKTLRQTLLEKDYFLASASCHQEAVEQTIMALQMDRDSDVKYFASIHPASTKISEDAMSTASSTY
UniProt P36873, whole entry, looked up: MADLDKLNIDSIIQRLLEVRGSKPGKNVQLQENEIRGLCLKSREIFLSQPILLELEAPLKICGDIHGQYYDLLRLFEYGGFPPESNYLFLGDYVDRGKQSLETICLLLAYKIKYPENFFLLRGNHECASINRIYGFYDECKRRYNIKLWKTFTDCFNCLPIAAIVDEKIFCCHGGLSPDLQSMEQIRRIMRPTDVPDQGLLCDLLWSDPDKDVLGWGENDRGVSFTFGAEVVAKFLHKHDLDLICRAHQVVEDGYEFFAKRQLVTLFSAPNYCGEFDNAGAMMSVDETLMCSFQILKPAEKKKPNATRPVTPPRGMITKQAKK
UniProt Q9ULR3: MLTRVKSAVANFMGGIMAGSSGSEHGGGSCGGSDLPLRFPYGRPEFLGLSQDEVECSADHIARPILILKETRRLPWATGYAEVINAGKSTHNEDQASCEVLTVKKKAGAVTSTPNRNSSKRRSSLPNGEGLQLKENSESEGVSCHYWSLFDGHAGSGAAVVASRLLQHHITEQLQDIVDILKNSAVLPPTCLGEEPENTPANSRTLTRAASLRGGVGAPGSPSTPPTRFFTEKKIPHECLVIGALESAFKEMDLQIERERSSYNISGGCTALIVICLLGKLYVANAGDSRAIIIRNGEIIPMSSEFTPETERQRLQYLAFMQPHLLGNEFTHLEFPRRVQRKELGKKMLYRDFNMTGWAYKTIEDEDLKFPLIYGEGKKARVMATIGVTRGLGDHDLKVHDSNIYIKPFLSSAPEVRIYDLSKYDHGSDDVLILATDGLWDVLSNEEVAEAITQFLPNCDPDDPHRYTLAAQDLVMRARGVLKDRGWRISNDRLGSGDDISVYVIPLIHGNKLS
UniProt Q14558: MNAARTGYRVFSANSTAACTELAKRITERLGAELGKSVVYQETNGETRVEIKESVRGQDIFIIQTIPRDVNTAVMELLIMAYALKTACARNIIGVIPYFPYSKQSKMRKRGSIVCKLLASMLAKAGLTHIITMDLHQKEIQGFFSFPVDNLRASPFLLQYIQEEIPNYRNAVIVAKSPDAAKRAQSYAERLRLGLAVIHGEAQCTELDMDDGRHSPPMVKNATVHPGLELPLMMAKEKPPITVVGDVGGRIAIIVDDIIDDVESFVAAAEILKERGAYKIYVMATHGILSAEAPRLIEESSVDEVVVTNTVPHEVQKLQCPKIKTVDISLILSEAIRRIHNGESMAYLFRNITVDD

The list shows a part of the results.

Compound in the experiment: c1cn2cc(-c3ccc4cn[nH]c4c3)nc(Nc3ccc(N4CCOCC4)cc3)c2n1 [entospletinib]
Nature of the experiment: log2 fold change, soluble protein after heating vs DMSO (PISA); higher = thermal stabilisation; K562 cells, 10 uM, 30 min; active = over 0.2 and 3.5 SD of the protein, either way, in both replicates (recomputed). The procedure, abridged:
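Quantification of soluble protein used TMTpro 16plex LC-MS/MS, with channel sums equalised. Samples were the supernatant after 21,000xg for 90 min of pooled aliquots from K562 cells (2×10^6 cells/mL) treated with 10 μM compound for 30 min, heated for 3 min over 48°C-58°C, and extracted in PBS with 0.5% NP-40 at 4°C. Values, from duplicates, describe thermal stability against control samples on a log2 fold-change scale.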
Regarding PRPS1 (UniProt P60891), the log2 fold change is inactive: -0.051. The result for PPP1R8 (UniProt Q12972) reads inactive: -0.033. The result for PRPF19 (UniProt Q9UMS4) reads inactive: 0.023; that for PRKRIP1 (UniProt Q9H875), inactive: -0.021; that for PPP2R1A (UniProt P30153), inactive: 0.001. The result for PPP2CB (UniProt P62714) reads inactive: 0.02; that for PRRC1 (UniProt Q96M27), inactive: 0.018; that for PPP2R5D (UniProt Q14738), inactive: 0.043.

In the case of PPP3CC isoform 3 (UniProt P48454), the log2 fold change was inactive: -0.006. The result for PRDX6 (UniProt P30041) reads inactive: 0.024; that for PPP5C (UniProt P53041), inactive: 0.021; that for PRKCI (UniProt P41743), inactive: 0.048. Take PRKCSH (UniProt P14314): the log2 fold change is inactive: -0.001. The result for PRG2 (UniProt P13727) reads inactive: -0.062. The result for PRRC2C isoform 7 (UniProt Q9Y520) reads inactive: 0.067; that for PRPF18 (UniProt Q99633), inactive: 0.039; that for PPP1R13L (UniProt Q8WUF5), inactive: 0.096.

For the target PPP1CB (UniProt P62140), the log2 fold change is inactive: -0.02. The result for PPP4R1 (UniProt Q8TF05) reads inactive: 0.014; that for PPP1CC isoform 2 (UniProt P36873), inactive: -0.011.

Consider PRDX2 (UniProt P32119), for which the log2 fold change was inactive: 0.001. For PRKDC (UniProt P78527), the log2 fold change was inactive: -0.045. The result for PRPH isoform 2 (UniProt P41219) reads inactive: 0.098; that for PPM1H (UniProt Q9ULR3), inactive: -0.021; that for PRPSAP1 isoform 2 (UniProt Q14558), inactive: -0.003. On to PRADC1 (UniProt Q9BSG0), for which the log2 fold change is inactive: 0.251. The result for PRMT1 (UniProt Q99873) reads inactive: -0.003.

For PRMT9 (UniProt Q6P2P2), the log2 fold change was inactive: -0.127.
